According to patent US12590158 (XIYUAN ANJIAN MEDICINE SHANGHAI, dated 2026):
Positions count from the first letter of the chain named. No constants are given. Whether binding was seen depends on the method and setting. Some entries that bind do so weakly or less than the wild type.

Sequences of proteins named here, by UniProt entry; tags and fusion partners are left off. Residues count along the entry.
UniProt P04629, residues 33-417: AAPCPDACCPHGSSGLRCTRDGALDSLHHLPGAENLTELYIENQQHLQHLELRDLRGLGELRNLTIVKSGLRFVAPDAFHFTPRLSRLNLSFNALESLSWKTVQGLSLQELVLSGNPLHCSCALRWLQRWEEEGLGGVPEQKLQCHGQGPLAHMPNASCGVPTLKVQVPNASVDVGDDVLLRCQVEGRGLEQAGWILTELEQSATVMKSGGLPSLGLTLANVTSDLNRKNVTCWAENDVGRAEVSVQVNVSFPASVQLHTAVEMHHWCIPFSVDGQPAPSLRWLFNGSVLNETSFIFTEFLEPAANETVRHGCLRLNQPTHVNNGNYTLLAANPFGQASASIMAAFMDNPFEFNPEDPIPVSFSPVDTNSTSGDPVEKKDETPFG

B1: anti-TrkA antibody 42A11 (antibody, V domains shown)
VH: QVQLQQPGAELVKPGASVKLSCKASGYTFTNYWMHWVKQRPGQGLEWIGEIYPSNGRTNYNEKFKTKATLTVDKSSSTAYMHLSSLTSEDSAVYYCAGSRYDAMDFWGQGTSVTVSS
VL: QIVLTQSPAIMSASPGEKVTMTCSASSIISYMHWYQQKSGTSPKRWIYDTSKLASGVPARFSGSGSGTSYSLTISGMEAEDAATYYCHQWTSNPLTFGGGTKLELK
notes: Murine monoclonal antibody purified from hybridoma medium by protein G
B2: anti-TrkA antibody 40D6 (antibody, V domains shown)
VH: QVQLQQSGTELMKPGASVKISCKATGYTFSRYWIEWVKQRPGHGLEWIGEILPGRSSTNYNEKFKGKATFTADTSSNTAYMQLSSLTSEDSAVYYCTRVSQLHIYFDYWGQGTTVTVSS
VL: DIVMTQVVPSVPVTPGESVSISCRSSKSLLHSNGNTYLYWFQQRPGQSPQLLIYRMSNLASGVPDRFSGSGSGTAFTLRISRVEAEDVAFYYCMQHLEFPLTFGAGTKLELK
notes: as for B1
B3: anti-TrkA antibody 5A3 (antibody, V domains shown)
VH: QVQLQQSGAELMKPGASVKISCKAIGYTFSRYWIEWVKQRPGHGLEWIGEILPGRGVTNYNENFKGKATFTVDISSTTTYIQFSSLTSEDSAVYYCARSNYGDYDFWGQGTSLTVSS
VL: QTVVTQESALTTSPGETVTLTCRSSSGAVTTSNHANWVQEKPDHLFTSLMGGTNNRAPGVPARFSGSLIGDKAALTITGAQTEDEAIYFCALWYSNHWVFGGGTKLTVL
notes: as for B1
B4: anti-TrkA antibody 42H6 (antibody, V domains shown)
VH: QVQLQQPGVELVKPGASVKLSCKTSGYTFTSYWMHWVKQRPGQGLEWIGEIYSSNGLTNYNEKFKNKATLTVDKSSSTAYMQLTSLTSEDSAIYYCARHWYVFLDHWGQGTTLTVSS
VL: B3 VL with T2A, S26T, S48G, M50I, T53I, K105R
notes: as for B1
B5: anti-TrkA antibody 11G8 (antibody, V domains shown)
VH: QVQLQQPGAELVKPGASVKLSCKASGYTFTSYWMHWVKQRPGQGLEWIGEINPNNGLTNYDEKFKTKATLTIDKSSRTAYIQLSSLTSEDSAVYYCAKYGNYVAFAFWGQGTLVTVSA
VL: DIQMTQSPASLSATVGETVTITCRASENIYSYVAWYQQKQGKSPQLLVHNAKTLAEGVPSRFSGSGSGTQFSLKINGLHPEDFGSYYCQHHYGIPLTFGAGTKLELK
notes: as for B1
B6: anti-TrkA antibody 33H5 (antibody, V domains shown)
VH: B5 VH with K19Q, M34I, D61I, T66N, R77N, I81M, S85G, S88P, F107Y
VL: B5 VL with T14S, E17D, S31T, V33L, A51T, N76S, G77S, H79Q, S85T, I94V
notes: as for B1

What follows are binders tested against TrkA extracellular region (33-417) protein comprising human Fc (ACROBiosystems TRA-H5259) (human) (UniProt P04629) (assay: ELISA, coated human TrkA (33-417)-hFc).

binding, binds:
B1
B2
B3
B4
B5
B6

These binders were tested against TrkA extracellular region (33-417) protein comprising human Fc (ACROBiosystems TRA-H5259) (human) (UniProt P04629) (assay: ELISA, coated human TrkA extracellular region protein).

binding, binds:
B1
B2
B3
B4
B5
B6

Each binder was assayed against TrkA extracellular region (33-417) protein comprising human Fc (ACROBiosystems TRA-H5259) (human) (UniProt P04629) (assay: ELISA, plate coated with human TrkA extracellular region protein, HRP goat anti-mouse Fc detection).

binding, binds:
B1
B2
B3
B4
B5
B6
